From paper doi:10.1101/2021.01.28.428596
No constants are given. Whether binding was seen depends on the method and setting. Binding seen in cells or lysates may run through a third protein. A yes stands for co-enrichment or nearness to the bait. Other partners may have been found. Where a sequence is shown, tags or fusion partners need not be part of it.

Biological target: T1, RIR1-GFP (ProRIR1:RIR1-GFP in the rir1-1 mutant) (Arabidopsis thaliana) (UniProt C0LGG9)
T1 sequence: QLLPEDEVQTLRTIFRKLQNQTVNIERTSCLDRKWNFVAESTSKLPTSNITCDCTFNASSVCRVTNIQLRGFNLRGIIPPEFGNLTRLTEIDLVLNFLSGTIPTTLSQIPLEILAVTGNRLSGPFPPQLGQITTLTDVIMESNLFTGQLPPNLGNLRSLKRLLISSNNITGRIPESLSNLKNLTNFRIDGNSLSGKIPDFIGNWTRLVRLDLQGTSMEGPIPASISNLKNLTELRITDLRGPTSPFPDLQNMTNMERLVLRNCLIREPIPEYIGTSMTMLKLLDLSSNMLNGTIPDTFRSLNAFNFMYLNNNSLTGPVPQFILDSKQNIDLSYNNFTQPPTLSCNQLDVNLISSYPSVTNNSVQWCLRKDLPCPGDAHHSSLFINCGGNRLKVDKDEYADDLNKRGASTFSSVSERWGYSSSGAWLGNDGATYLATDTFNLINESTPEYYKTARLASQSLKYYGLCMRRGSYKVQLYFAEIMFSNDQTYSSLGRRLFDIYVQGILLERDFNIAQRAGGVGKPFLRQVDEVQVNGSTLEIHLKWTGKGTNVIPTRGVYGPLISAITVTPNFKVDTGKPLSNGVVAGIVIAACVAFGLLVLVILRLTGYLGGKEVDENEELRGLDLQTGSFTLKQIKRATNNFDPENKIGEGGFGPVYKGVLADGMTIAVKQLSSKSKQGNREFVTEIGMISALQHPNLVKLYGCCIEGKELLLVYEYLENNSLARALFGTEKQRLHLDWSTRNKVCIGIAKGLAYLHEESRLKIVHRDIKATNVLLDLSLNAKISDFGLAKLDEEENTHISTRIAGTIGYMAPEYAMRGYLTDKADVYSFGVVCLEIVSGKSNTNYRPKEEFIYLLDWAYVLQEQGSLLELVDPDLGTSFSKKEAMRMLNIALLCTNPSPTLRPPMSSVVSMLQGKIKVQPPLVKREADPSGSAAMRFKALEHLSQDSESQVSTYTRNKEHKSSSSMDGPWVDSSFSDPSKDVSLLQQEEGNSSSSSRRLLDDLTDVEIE
Test: affinity purification with mass spectrometry

B1: NEMATODE-INDUCED LRR-RLK 2 (NILR2), endogenous (receptor, UniProt C0LGG8 29-1038)
chain: QLLPEDEVQTLRTIFRKLQNQTVNIERTSCSDQNWNFVVESASNSPTSNITCDCTFNASSVCRVTNIQLKSFSLPGIFPPEFGNLTRLREIDLSRNFLNGTIPTTLSQIPLEILSVIGNRLSGPFPPQLGDITTLTDVNLETNLFTGPLPRNLGNLRSLKELLLSANNFTGQIPESLSNLKNLTEFRIDGNSLSGKIPDFIGNWTLLERLDLQGTSMEGPIPPSISNLTNLTELRITDLRGQAAFSFPDLRNLMKMKRLVLRNCLIRGPIPEYIGSMSELKTLDLSSNMLTGVIPDTFRNLDAFNFMFLNNNSLTGPVPQFIINSKENLDLSDNNFTQPPTLSCNQLDVNLISSYPSVTDNSVQWCLREGLPCPEDAKQSSLFINCGGSRLKIGKDTYTDDLNSRGQSTFSSVSERWGYSSSGVWLGKEDAGYLATDRFNLINGSTPEYYKTARLSPQSLKYYGLCLRRGSYKLQLHFAEIMFSNDQTFNSLGRRIFDIYVQGNLLERDFNIAERAGGVGKPFIRQIDGVQVNGSTLEIHLQWTGKGTNVIPTRGVYGPLISAITITPNFKVDTGKPLSNGAVAGIVIAACAVFGLLVLVILRLTGYLGGKEVDENEELRGLDLQTGSFTLKQIKRATNNFDPENKIGEGGFGPVYKGVLADGMTIAVKQLSSKSKQGNREFVTEIGMISALQHPNLVKLYGCCIEGKELLLVYEYLENNSLARALFGTEKQRLHLDWSTRNKICIGIAKGLAYLHEESRLKIVHRDIKATNVLLDLSLNAKISDFGLAKLNDDENTHISTRIAGTIGYMAPEYAMRGYLTDKADVYSFGVVCLEIVSGKSNTNYRPKEEFVYLLDWAYVLQEQGSLLELVDPDLGTSFSKKEAMRMLNIALLCTNPSPTLRPPMSSVVSMLEGKIKVQPPLVKREADPSGSAAMRFKALELLSQDSESQVSTYARNREQDISSSSMDGPWVDSSFSEPGKDVSLQQQEEGRSSSSSRKLLDDLTDVKIE
binding: binds
